{"sequences": {"note": "By UniProt entry, the sequences of proteins in these tests, tags left out. Where a name states a change or a piece, a line headed by the entry shows the natural chain unless it says otherwise.", "UniProt O15260": "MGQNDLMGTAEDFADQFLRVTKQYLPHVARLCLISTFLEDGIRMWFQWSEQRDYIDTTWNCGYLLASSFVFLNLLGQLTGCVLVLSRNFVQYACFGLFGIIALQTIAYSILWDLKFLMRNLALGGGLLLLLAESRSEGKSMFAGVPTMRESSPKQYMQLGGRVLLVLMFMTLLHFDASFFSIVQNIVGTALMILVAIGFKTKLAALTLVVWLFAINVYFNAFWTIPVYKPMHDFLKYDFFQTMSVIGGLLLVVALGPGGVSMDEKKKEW"}, "source": "patent US20250243243A1", "about": "“DISRUPTION OF SONIC HEDGEHOG-SURF4 INTERACTION FOR CANCER TREATMENT” (The Hong Kong University of Science and Technology, priority 2022, published 2025)", "target": "T1, GST-SURF4^49-60 (Homo sapiens, UniProt O15260)", "T1 construct": "N-terminal GST-tagged SURF4^49-60; made in house; host or cells: E. coli", "assay": "Peptide binding assay: peptides immobilized on thiopyridone sepharose 6B beads, GST-SURF4^49-60 as prey, immunoblot", "conditions": "pull down, immunoblotting with anti-GST antibodies", "procedure": "Immunoprecipitation was performed as described (27). Purification of GST-tagged ShhN^25-49 and GST-tagged […] was performed as described previously (54). GST pull down assays were performed as described previously (54). Peptide binding assay was performed as described previously (27).\nPeptide binding assay was performed as described previously (59). Synthetic CW peptides ([…]; SEQ ID NO: 6), CW^MT peptides ([…]; SEQ ID NO: 9), SURF4^49-61 peptides ([…]; SEQ ID NO: 10), SURF4^49-60 peptides ([…]; SEQ ID NO: 12), or RRFR peptides ([…]; SEQ ID NO: 11) were purchased from GenScript and coupled to thiopyridone-Sepharose 6B beads (Sigma-Aldrich) via the added C-terminal cysteine residue. For binding experiments, 2 ? g purified GST-tagged SURF4^49-60 or Shh^25-49-GST was preincubated at 4° C. for 30 min in a total volume of […] HK buffer. After incubation, […] buffer containing around 5 ? l beads containing 5 nmol of peptides was added to the reaction mixture for 1 h at 4° C. The beads were washed four times with […] of HK buffer and analyzed by immunoblotting.", "note": "At least one peptide structure holds a part that was inferred or is arguable (an end, a ring closure or a residue). Where no end group is shown, it is not given here.", "data": [{"sequence": "KRRHPKKC [CW peptides]", "values": [{"measurement": "level of GST-SURF4^49-60 bound to immobilized peptides", "result": "binds"}]}]}
